In doi:10.1101/2021.07.20.453058 (bioRxiv, 2021):

Biological target: KaiA3 (Sll0485), GAL4 DNA-binding domain fusion (Synechocystis sp. PCC 6803)
Test: two-hybrid

B1: KaiC1, GAL4 fusion for yeast two-hybrid (protein, UniProt P74646 1-519)
chain: MNLPIVNERNRPDVPRKGVQKIRTVIEGFDEITHGGLPIGRTTLVSGTSGTGKTLLAVQFLYQGIHHFDYPGLFITFEESPSDIIENAYSFGWDLQQLIDDGKLFILDASPDPEGQEVVGTFDLSALIERIQYAVRKYKAKLVSIDSVTAVFQQYDAASVVRREIFRLVARLKQLQVTSIMTTERVEEYGPIARFGVEEFVSDNVVVLRNVLEGERRRRTVEILKLRGTTHMKGEYPFTITHDGINIFPLGAMRLTQRSSNARISSGVQTLDEMCGGGFFKDSIILATGATGTGKTLLVSKFLQEGCRQRERAILFAYEESRAQLSRNASSWGIDFEEMEHKGLLKLLCTYPESAGLEDHLQMIKSEISEFKPSRIAIDSLSALARGVTNNAFRQFVIGVTGYAKQEEITGFFTNTTDQFMGAHSITESHISTITDTILMLQYVEIRGEMSRALNVFKMRGSWHDKGIREYSISHDGPDIRDSFRNYERIISGSPTRISVDEKSELSRIVRGVKDKTAE
For B1, the binding was “no binding”.

No constants are given. Whether binding was seen depends on the method and setting. Sequences can lack the tags named with a protein.
